These results are taken from patent publication US7078398B2, “Compositions and methods for treating or preventing convulsions or seizures” (Vela Pharamaceuticals, Inc., priority 2001, dated 2006).

This test deals with picrotoxin-induced seizures in male NSA mice. Nature of the test: animal or person. Format: in vivo. The conditions noted are these: Mus musculus, i.p. 15 minutes prior to picrotoxin 5 mg/kg s.c. Here is the method:
Anticonvulsant activity against picrotoxin-induced seizures is considered evidence of clinical antiepileptic potential and reason for further evaluation of a test compound's anticonvulsant profile (Swinyard, E. A. et al., General principles: experimental detection, quantification and evaluation of anticonvulsants. In: Antiepileptic Drugs, D. M. Woodbury et al., eds. Raven Press, New York (1990) pp. 111–126).
Picrotoxin (5 mg/kg, Sigma Chem. Co., St. Louis, Mo., USA) was dissolved in saline and administered subcutaneously to induce seizures. In addition, picrotoxin alone was administered to seven animals as a control. All test drugs were dissolved in dimethylsulfoxide (DMSO).
After picrotoxin injection, mice were placed into a plexiglass cage for 30 minutes of observation. The appearance of seizures was defined as the presence of a single episode of clonic or tonic activity (including myoclonic jerks) during the 30 minute observation period. […] Animals were euthanized immediately after the observation period by CO2 inhalation. The ED50 (the dose of test compound at which half of the animals were protected against picrotoxin-induced seizures) values and their 95% confidence limits were calculated by the method of Litchfield and Wilcoxon (J. Pharmacol. Exp. Ther. 96:99–113 (1949)).

Where two headings read alike, the source gives them in different places.

`CN1C(=O)CN=C(c2ccccc2)c2cc(Cl)ccc21` [diazepam]: the ED50 (read-out: ED50 (95% confidence limit), Example 2, enantiomers of Example 1, 30 minute observation) came out at 0.52 mg/kg and the ED50 (read-out: ED50 (95% confidence limit), Example 4, enantiomers of Example 3) came out at 0.45 mg/kg.

In general, ED50 refers to the midpoint of the dose-response relation.
